Assay results: PMC6396667
Results are given in words; binding and its absence hold for the method and conditions named. In cells and extracts the contact can be indirect. Some entries that bind do so weakly or less than the wild type.

Chains of the proteins cited; added tags and fusions are not shown.
UniProt Q9UM07: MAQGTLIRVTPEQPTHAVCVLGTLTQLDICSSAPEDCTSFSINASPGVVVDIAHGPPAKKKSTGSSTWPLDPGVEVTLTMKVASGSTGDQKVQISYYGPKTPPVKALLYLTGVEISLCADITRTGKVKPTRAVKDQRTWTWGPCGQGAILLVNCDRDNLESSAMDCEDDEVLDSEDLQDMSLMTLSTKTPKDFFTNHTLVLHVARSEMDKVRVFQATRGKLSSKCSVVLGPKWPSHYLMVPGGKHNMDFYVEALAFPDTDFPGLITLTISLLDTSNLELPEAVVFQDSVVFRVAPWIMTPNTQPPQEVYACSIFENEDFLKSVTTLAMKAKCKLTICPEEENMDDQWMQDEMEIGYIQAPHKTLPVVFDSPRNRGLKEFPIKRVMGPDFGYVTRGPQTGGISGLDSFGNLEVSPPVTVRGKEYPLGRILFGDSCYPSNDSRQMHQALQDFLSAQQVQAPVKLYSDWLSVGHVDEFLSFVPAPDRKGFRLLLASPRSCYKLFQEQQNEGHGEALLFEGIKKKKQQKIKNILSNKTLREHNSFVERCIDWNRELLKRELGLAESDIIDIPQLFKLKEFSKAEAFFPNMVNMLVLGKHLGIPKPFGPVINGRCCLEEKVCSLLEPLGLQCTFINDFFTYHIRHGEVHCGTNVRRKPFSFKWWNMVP

Biological target: PAD4, endogenous in DMSO-differentiated HL60 cells (human (endogenous in HL60)) (UniProt Q9UM07)
Experiment: co-IP; lysate of DMSO-differentiated HL60 cells (Tris-Cl 25 mM pH 7.4, NaCl 50 mM, CaCl2 2 mM, 1% NP40) precipitated with anti-PAD4 (rabbit) or generic rabbit IgG, protein A/G beads; blot with anti-PAD4 and anti-thioredoxin

B1: thioredoxin (hTRX), endogenous in DMSO-differentiated HL60 cells (enzyme, UniProt P10599 1-105)
chain: MVKQIESKTAFQEALDAAGDKLVVVDFSATWCGPCKMIKPFFHSLSEKYSNVIFLEVDVDDCQDVASECEVKCMPTFQFFKKGQKVGEFSGANKEKLEATINELV
B1 was tested, and the binding was “binds”.
